Here are results for one substance from publication PMC6990924.

Amino acid sequences for entries named in this document (tags omitted).
UniProt Q96EB6: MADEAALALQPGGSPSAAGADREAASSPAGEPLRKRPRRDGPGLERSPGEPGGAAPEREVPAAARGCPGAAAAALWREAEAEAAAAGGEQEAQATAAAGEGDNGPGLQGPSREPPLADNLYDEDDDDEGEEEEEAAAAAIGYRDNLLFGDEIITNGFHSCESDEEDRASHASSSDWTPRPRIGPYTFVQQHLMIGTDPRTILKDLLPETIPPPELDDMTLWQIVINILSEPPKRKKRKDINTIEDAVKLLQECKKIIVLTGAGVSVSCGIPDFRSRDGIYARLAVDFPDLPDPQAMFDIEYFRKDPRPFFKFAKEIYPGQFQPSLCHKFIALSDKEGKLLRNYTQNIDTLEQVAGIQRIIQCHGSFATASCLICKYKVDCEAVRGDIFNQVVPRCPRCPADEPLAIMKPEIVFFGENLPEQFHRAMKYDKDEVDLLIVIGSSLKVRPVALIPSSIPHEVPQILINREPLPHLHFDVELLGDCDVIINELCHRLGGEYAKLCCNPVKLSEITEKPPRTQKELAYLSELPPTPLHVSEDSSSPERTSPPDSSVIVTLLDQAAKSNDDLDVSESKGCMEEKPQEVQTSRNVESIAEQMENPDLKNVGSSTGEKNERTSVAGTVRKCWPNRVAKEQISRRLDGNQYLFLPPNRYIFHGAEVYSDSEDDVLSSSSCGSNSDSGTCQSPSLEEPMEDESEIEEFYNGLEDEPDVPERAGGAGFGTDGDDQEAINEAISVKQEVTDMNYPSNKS
UniProt P40763: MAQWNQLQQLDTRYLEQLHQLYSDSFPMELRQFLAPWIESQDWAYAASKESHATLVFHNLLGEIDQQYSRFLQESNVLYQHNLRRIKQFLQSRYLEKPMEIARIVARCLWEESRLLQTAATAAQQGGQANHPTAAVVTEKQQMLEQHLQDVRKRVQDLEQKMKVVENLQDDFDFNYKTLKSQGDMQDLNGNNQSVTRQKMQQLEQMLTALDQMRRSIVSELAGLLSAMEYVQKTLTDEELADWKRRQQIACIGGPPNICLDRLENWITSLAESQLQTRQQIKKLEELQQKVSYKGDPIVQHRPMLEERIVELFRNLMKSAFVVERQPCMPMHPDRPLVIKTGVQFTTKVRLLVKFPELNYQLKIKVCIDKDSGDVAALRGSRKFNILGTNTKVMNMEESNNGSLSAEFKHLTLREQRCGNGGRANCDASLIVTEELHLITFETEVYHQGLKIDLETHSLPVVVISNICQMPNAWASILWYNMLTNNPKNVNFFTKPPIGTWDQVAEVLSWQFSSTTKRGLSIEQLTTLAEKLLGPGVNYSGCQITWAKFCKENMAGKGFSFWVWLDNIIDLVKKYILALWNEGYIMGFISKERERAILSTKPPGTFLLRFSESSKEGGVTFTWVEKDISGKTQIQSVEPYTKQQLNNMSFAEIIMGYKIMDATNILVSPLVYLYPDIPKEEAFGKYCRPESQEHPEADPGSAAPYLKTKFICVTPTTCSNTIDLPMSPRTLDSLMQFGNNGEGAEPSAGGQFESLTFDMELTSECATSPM

These are yes or no findings as the source states them, for the method shown. In cells and extracts the contact can be indirect. Binding calls can cover weak binding; strength is not graded here.

The target of assay [1] is SIRT1 (human (endogenous in HAVSMCs)) (UniProt Q96EB6). Briefly: co-IP; endogenous co-immunoprecipitation from HAVSMC lysates; antibody 3 hours, protein A/G magnetic beads 12 hours at 4 °C; some panels with 20 ng/mL PDGF-BB, or cells transfected with Flag-Septin4 plasmid or Septin4-siRNA.
The target of assay [2] is Signal transducer and activator of transcription 3 (human (endogenous in HAVSMCs)) (UniProt P40763). The description is as above.

As to Septin4 (from UniProt O43236-1), the binding entry in assay [1] and in assay [2] was “binds” each time.
